{"source": "PubChem BioAssay AID1347076", "about": "(National Center for Advancing Translational Sciences (NCATS), 2019)", "note": "Hit rate of the full screen: of about 400,000 compounds, about 13,000 (3.2%) were called active. Inconclusive means that the source gave no clear call. Such entries were picked first, then a sample of the others. The call rests on the fitted dose curve; in most records, active means well fitted cell-killing curve with a large enough effect; inconclusive means small, poorly fitted or top-dose-only effect, or effect the other way; inactive means flat fitted curve, though single readings scatter. Where the call is inconclusive, the potency comes from a doubtful curve fit. On the % scale 0 is the no-effect control and ±100 the full control effect; potency means the concentration at half of the fitted maximal effect."}
{"test": "qHTS assay for MDR1-selective chemotherapeutics: Primary screen using the drug-selected MDR subline cells KB-V1; further: nearly all actives have a fitted effect of over 60% in size", "conditions": "KB-V1 MDR cells viability, CellTiter-Glo, 72 h; activity change, negative = cytotoxicity: at 46.1 µM (top of the series)", "summary_of_the_method": "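Following 72 h at 37 degrees C with compound, KB-V1 cell viability was read by CellTiter-Glo luminescence, medium being phenol-red-free DMEM plus 10% FBS; concentration-response parameters came from normalized, curve-fitted qHTS data.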"}
{"smiles": "COc1ccc(N2Cc3ccccc3C2=O)cc1", "Potency": "inconclusive: 29.1 µM [cytotoxic, single point]"}
{"smiles": "COc1ccc(/C=N/NC(=O)c2cccc([N+](=O)[O-])c2)cc1OS(=O)(=O)c1ccc(C)cc1", "Potency": "active: 20.6 µM"}
{"smiles": "CC(Oc1ccc(Cl)cc1Cl)c1nc(-c2ccccn2)no1", "note": "(centres undefined)", "Potency": "inconclusive: 20.6 µM [cytotoxic, partial curve]"}
{"smiles": "COc1ccc(Cc2nnc(SCc3ccc([N+](=O)[O-])cc3)o2)cc1", "Potency": "inconclusive: 29.1 µM [cytotoxic, single point]"}
{"smiles": "C=CCNC(=O)N1CCc2[nH]c3ccc(F)cc3c2C1", "Potency": "inconclusive: 29.1 µM [rising, single point]"}
{"smiles": "COc1ccc2c(c1)-c1c(ssc1=S)C(C)(C)N2", "Potency": "inconclusive: 18.4 µM [cytotoxic, single point]"}
{"smiles": "Cn1c(=O)c2c(n3cnnc13)-c1ccccc1CC21CCCC1", "Potency": "active: 23.1 µM"}
{"smiles": "Cc1c(C(=O)NCc2ccc3c(c2)OCO3)oc2ccc(S(=O)(=O)N3CCC(C)CC3)cc12", "Potency": "inactive"}
{"smiles": "CCN1C(=O)/C(=C\\c2ccncc2)SC1=Nc1ccc(C)c(C)c1", "Potency": "active: 14.6 µM"}
{"smiles": "NC(=O)CC(NC(=O)c1ccccc1)c1ccc(N2CCN(c3ccc(F)cc3)CC2)c([N+](=O)[O-])c1", "note": "(centres undefined)", "Potency": "inconclusive: 29.1 µM [rising, single point]"}
{"smiles": "CCn1c(=O)cc(OCC(=O)NCc2cccs2)c2ccccc21", "Potency": "inconclusive: 16.4 µM [cytotoxic, single point]"}
{"smiles": "Cc1ccc(-c2nn3c(C)nnc3s2)cc1NC(=O)C(C)C", "Potency": "inactive"}
{"smiles": "CC1(c2ccccc2)NC(=O)N(CC(=O)Nc2ccc(N3CCOCC3)cc2N2CCOCC2)C1=O", "note": "(centres undefined)", "Potency": "inconclusive: 2.31 µM [rising, partial curve]"}
{"smiles": "Cc1cc2c(cc1C)N(Cc1ccc(Cl)cc1)C1=NCCCN12", "Potency": "inconclusive: 29.1 µM [cytotoxic, single point]"}
{"smiles": "COc1ccc(C(=O)NCCc2cc3c(OC)ccc(OC)c3[nH]c2=O)cc1OC", "Potency": "inconclusive: 29.1 µM [cytotoxic, single point]"}
{"smiles": "CCC(Sc1nc2sc(C(=O)OC)c(C)c2c(=O)n1N)C(=O)N(CC)CC", "note": "(centres undefined)", "Potency": "active: 3.66 µM"}
{"smiles": "Brc1ccc(OCc2ccccc2)c(CNCC2CCCO2)c1", "note": "(centres undefined)", "Potency": "inconclusive: 13 µM [cytotoxic, partial curve, poor fit]"}
{"smiles": "COC(=O)C(C)N1C(=O)S/C(=C\\c2cc(C)n(-c3ccccn3)c2C)C1=O", "note": "(centres undefined)", "Potency": "inconclusive: 16.4 µM [cytotoxic, single point]"}
{"smiles": "COc1ccc2[nH]c3nc(SCC(=O)Nc4cccc(NC(C)=O)c4)nnc3c2c1", "Potency": "inconclusive: 29.1 µM [rising, single point]"}
{"smiles": "CC(C)(C)N(Cc1ccccc1)C(=O)c1ccc(Cl)cc1[N+](=O)[O-]", "Potency": "inconclusive: 20.6 µM [cytotoxic, single point]"}
{"smiles": "COc1cccc(NC(=O)c2nnn(Cc3ccc(Br)cc3F)c2N)c1", "Potency": "inconclusive: 29.1 µM [rising, single point]"}
{"smiles": "C[C@H](CO)N1C[C@H](C)[C@@H](CN(C)S(=O)(=O)c2ccc(Cl)cc2)Oc2ccc(NS(=O)(=O)c3ccccc3)cc2CC1=O", "activity change, negative = cytotoxicity": "inconclusive: -3.57%"}
{"smiles": "COC(=O)c1ccc(NC(=O)CN2CCN(c3ccccc3C)CC2)cc1", "Potency": "inactive"}
{"smiles": "CCN(C(=O)C1CCN(S(=O)(=O)c2c(C)noc2/C=C/c2ccc(C)cc2)CC1)c1cccc(C)c1", "Potency": "inactive"}
{"smiles": "C=C1CCC[C@]2(C)C[C@H]3OC(=O)C(CN4CC(C)OC(C)C4)[C@H]3C[C@@H]12", "note": "(some centres undefined)", "Potency": "inactive"}
{"smiles": "CN1CCN(CCNC(=O)c2cnn(-c3ccc(Cl)cc3)c2C2CCN(C(=O)OC(C)(C)C)CC2)CC1", "Potency": "inconclusive: 13 µM [rising, partial curve]"}
{"smiles": "COc1ccc(N2CC(C(=O)Nc3nc4ccccc4s3)CC2=O)cc1", "note": "(centres undefined)", "Potency": "inconclusive: 16.4 µM [cytotoxic, partial curve, poor fit]"}
{"smiles": "CN(C(=O)c1cnc(N2CCN(c3ncccn3)CC2)c2ccccc12)c1ccc(Cl)cc1", "Potency": "inconclusive: 5.8 µM [cytotoxic, partial curve, poor fit]"}
{"smiles": "COCCn1nnnc1C(CC(C)C)N1CCN(c2ccccc2)CC1", "note": "(centres undefined)", "Potency": "inconclusive: 9.2 µM [cytotoxic, partial curve]"}
{"smiles": "O=C(CCN1CCOCC1)N/N=C/c1cc(Br)cc(Br)c1O", "Potency": "inconclusive: 23.1 µM [cytotoxic, single point]"}
{"smiles": "COc1ccc(NC(=O)CSc2nc3ccccc3c(=O)n2CCC(=O)NC2CCCCC2)c(OC)c1", "Potency": "inactive"}
{"smiles": "CCOc1ccc(CN(C)C(=O)c2ccc3c(c2)NC(=O)C(C)S3)cc1OC", "note": "(centres undefined)", "Potency": "inconclusive: 29.1 µM [cytotoxic, single point]"}
{"smiles": "CCC(=O)N1CCc2cc(S(=O)(=O)NC(Cc3ccccc3)C(=O)O)ccc21", "note": "(centres undefined)", "Potency": "inactive"}
{"smiles": "O=C(COC(=O)c1ccccc1C(=O)c1ccc(Cl)cc1)NCCc1ccccc1", "Potency": "inconclusive: 14.6 µM [cytotoxic, partial curve]"}
{"smiles": "O=C(Nc1nc2ccccc2s1)c1cc(-c2ccco2)nc2ccccc12", "Potency": "inconclusive: 29.1 µM [cytotoxic, single point]"}
{"smiles": "Cc1ccc(S(=O)(=O)Nc2ccc3nc(-c4cccc(Cl)c4)oc3c2)cc1", "Potency": "inactive"}
{"smiles": "CC(O)C(NS(=O)(=O)c1ccc2ccccc2c1)C(=O)OCC(=O)Nc1ccccc1OC(F)F", "note": "(centres undefined)", "Potency": "inactive"}
{"smiles": "CC(C)(C)NC(=O)C1(C)CCC(=O)N1CC(F)(F)F", "note": "(centres undefined)", "Potency": "inactive"}
{"smiles": "O=C1/C(=C/c2ccccn2)SC(=S)N1Nc1ncc(C(F)(F)F)cc1Cl", "Potency": "inactive"}
{"smiles": "CCC(c1nnnn1Cc1ccc(OC)cc1)N(CCCO)Cc1cc2cc3c(cc2[nH]c1=O)OCO3", "note": "(centres undefined)", "Potency": "inactive"}
{"smiles": "CC(=O)Nc1ccccc1-c1nc2ccccc2nc1OCC(=O)c1ccc(Br)cc1", "Potency": "inconclusive: 6.51 µM [cytotoxic, full curve]"}
{"smiles": "CCCCn1c(N)c(N(C)C(=O)c2ccccc2Oc2ccccc2)c(=O)[nH]c1=O", "Potency": "inactive"}
{"smiles": "COc1ccccc1NC(=O)CN(Cc1ccco1)C(=O)c1cncc(Br)c1", "Potency": "inconclusive: 7.31 µM [cytotoxic, partial curve]"}
{"smiles": "O=C(c1ccc(N2CCN(C(=O)c3cccc(F)c3)CC2)cc1)c1cccc(F)c1", "Potency": "active: 4.11 µM"}
{"smiles": "O=C(c1ccccc1)N1N=C(c2ccc(F)cc2)CC1(O)C(F)(F)F", "note": "(centres undefined)", "Potency": "inconclusive: 32.6 µM [rising, single point]"}
{"smiles": "COC(=O)c1ccc(/C=C/c2c(-c3ccc(OC)cc3)oc3ccc(N4CCOCC4)cc23)cc1", "Potency": "inconclusive: 18.4 µM [cytotoxic, single point]"}
{"smiles": "Cc1oc2cc3oc(=O)c(CCC(=O)NC4CC4)c(C)c3cc2c1C", "Potency": "inconclusive: 29.1 µM [cytotoxic, single point]"}
{"smiles": "CCCCCNC(=O)C1C(=O)Nc2ccccc2C(=O)N1C(C)(C)C", "note": "(centres undefined)", "Potency": "inactive"}
{"smiles": "CC(C)NS(=O)(=O)c1ccc(CCC(=O)Nc2ccc3c(c2)OCO3)cc1", "Potency": "inconclusive: 29.1 µM [cytotoxic, single point]"}
{"smiles": "O=C(CCS(=O)(=O)c1ccccc1)N(CCCN1CCOCC1)c1nc2c(F)cccc2s1", "Potency": "inconclusive: 29.1 µM [cytotoxic, single point]"}
{"smiles": "NS(=O)(=O)c1ccc(CCNC(=O)COC(=O)Cc2ccc(Cl)cc2)cc1", "Potency": "inconclusive: 5.17 µM [rising, partial curve, poor fit]"}
{"smiles": "COC(=O)CCC/C=C1/SCC(NC(=O)c2ccccc2)/C1=N/O", "note": "(centres undefined)", "Potency": "inconclusive: 32.6 µM [rising, single point]"}
{"smiles": "Fc1ccc(Nc2nc3ccccc3n3cnnc23)c(F)c1", "Potency": "inactive"}
{"smiles": "Cc1ccccc1CNC(=O)C1CCC(=O)N(CC2CCCCC2)C1", "note": "(centres undefined)", "Potency": "inconclusive: 16.4 µM [cytotoxic, partial curve]"}
{"smiles": "O=S1(=O)c2ccc(Br)cc2N2CCC[C@H]2CN1Cc1ccccc1", "Potency": "active: 5.17 µM"}
{"smiles": "CCSc1nc2ccccc2c(OCc2ccccc2Cl)c1C(=O)OC", "Potency": "inactive"}
{"smiles": "O=C(O)c1ccc(CSc2nc(-c3ccccc3)cc(C(F)(F)F)n2)cc1", "Potency": "inactive"}
{"smiles": "COCC1CCN(C(=O)c2cc(COc3cccc4cnccc34)on2)CC1", "Potency": "inconclusive: 3.66 µM [cytotoxic, full curve]"}
{"smiles": "CCN(C(=O)[C@@H]1CCCN1C(=O)c1cccs1)c1nc2cc(Cl)ccc2s1", "Potency": "inconclusive: 4.61 µM [cytotoxic, partial curve]"}
{"smiles": "O=c1cc(CN2CCN(Cc3ccccc3)CC2)c2cc(O)ccc2o1", "Potency": "inactive"}
{"smiles": "COc1ccc(Cl)cc1NS(=O)(=O)c1cccc(C(=O)NCC2CCCO2)c1", "note": "(centres undefined)", "Potency": "inconclusive: 29.1 µM [cytotoxic, single point]"}
{"smiles": "COc1ccccc1N1CCN(Cc2cc(=O)oc3cc(C)ccc23)CC1", "Potency": "inactive"}
{"smiles": "Cc1ccccc1NS(=O)(=O)c1ccc(C(=O)N2CCCCCCC2)cc1", "Potency": "inconclusive: 8.2 µM [cytotoxic, partial curve]"}
{"smiles": "COCCn1c2nc(=O)n(-c3ccccc3)c(=O)c-2nc2ccccc21", "Potency": "inconclusive: 29.1 µM [cytotoxic, single point]"}
{"smiles": "Cc1nc2nc(CNC(=O)c3cccc(F)c3)nn2c(C)c1CCC(=O)Nc1cccc(Cl)c1", "Potency": "inactive"}
{"smiles": "Cc1nn(C(C)C(=O)Nc2ccccc2C(F)(F)F)c(=O)c2c1sc1ccccc12", "note": "(centres undefined)", "Potency": "inactive"}
{"smiles": "Cc1ccc(NC(=O)c2ccc(NCCCN3CCOCC3)c([N+](=O)[O-])c2)cc1Cl", "Potency": "active: 23.1 µM"}
{"smiles": "O=C1N/C(=C\\c2ccccc2)c2ccccc21", "Potency": "inconclusive: 5.8 µM [cytotoxic, full curve]"}
{"smiles": "C[C@]12CC[C@H](O)CC1=CCC1C2CC[C@@]2(C)C1CCC21OCCO1", "note": "(some centres undefined)", "Potency": "inconclusive: 25.9 µM [cytotoxic, single point]"}
